PubChem BioAssay AID743454, Peter MacCallum Cancer Centre | 2014
The whole screen tested about 18,000 reagents; below is a random part of them. Of all reagents, 450 (2.5%) are marked active. 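Single biological run; no consistent viability z cut-off exists, so the class columns, not z-scores, define the calls.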

Screen: 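Search for knock-downs that restore vorinostat killing in resistant colon cancer cells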 (primary screen)
Cells: human HCT116-VR colon cancer cells, selected for vorinostat resistance
Reagent: siRNA pool against human genes, 40 nM siRNA pool
Duration: vorinostat for 24 h, read-out about 72 h after transfection
Challenge: vorinostat at 2.5 µM final
Read-out: 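Cell viability by CellTiter-Fluor and caspase 3/7 activity by luminescence, each scaled to mock wells per plate, duplicates averaged, then robust z-scored over all plates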
Reading the numbers: viability robust z-score: higher = more viable cells than screen typical; caspase robust z-score: higher = more caspase 3/7 activity than screen typical
Active means: 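a knock-down is a hit when classed RV1 or RV2 for lowered viability, or CA1 or CA2 for caspase activation; those lethal without drug were dropped; hits were retested singly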

The first 2 records as a preview:
| gene | viability hit class | caspase hit class | viability robust z-score | caspase robust z-score | activity call |
| --- | --- | --- | --- | --- | --- |
| TSFM (GeneID 10102) | no change | no change | 0 | -1.35 | inactive |
| TP63 (GeneID 8626) | no change | no change | -0.06 | -0.3 | inactive |

The list itself, from the start:
| gene | viability hit class | caspase hit class | viability robust z-score | caspase robust z-score | activity call |
| --- | --- | --- | --- | --- | --- |
| TSFM (GeneID 10102) | no change | no change | 0 | -1.35 | inactive |
| TP63 (GeneID 8626) | no change | no change | -0.06 | -0.3 | inactive |
| RNF152 (GeneID 220441) | no change | no change | -1.12 | 0.02 | inactive |
| CRADD (GeneID 8738) | no change | no change | -2.32 | 4.75 | inactive |
| TXNDC5 (GeneID 81567) | no change | no change | 0.53 | 0.66 | inactive |
| APOL4 (GeneID 80832) | no change | no change | -0.79 | 0.02 | inactive |
| DMAC2L (GeneID 27109) | no change | no change | 0.72 | -0.5 | inactive |
| IBA57 (GeneID 200205) | no change | no change | 0.9 | 1.68 | inactive |
| MEX3D (GeneID 399664) | no change | no change | 1.35 | 0.86 | inactive |
| MRE11 (GeneID 4361) | no change | no change | 1 | 1.5 | inactive |
| CSRNP3 (GeneID 80034) | no change | no change | 0 | -0.29 | inactive |
| ALOX12 (GeneID 239) | no change | no change | 0.16 | -0.63 | inactive |
| LRP2BP (GeneID 55805) | no change | no change | -2.12 | 0.52 | inactive |
| MYO1A (GeneID 4640) | no change | no change | -0.08 | 1.62 | inactive |
| SHKBP1 (GeneID 92799) | no change | no change | -0.47 | -1.16 | inactive |
| CEL (GeneID 1056) | no change | no change | 0.8 | 0.38 | inactive |
| ZDHHC11 (GeneID 79844) | no change | no change | -0.3 | 1.11 | inactive |
| H2AC14 (GeneID 8331) | no change | no change | 0.89 | 0.01 | inactive |
| ZNF674 (GeneID 641339) | no change | no change | 1.38 | -0.96 | inactive |
| TEX264 (GeneID 51368) | no change | no change | 1.03 | -0.29 | inactive |
| CDH13 (GeneID 1012) | no change | no change | 0.6 | -0.22 | inactive |
| ALG5 (GeneID 29880) | no change | no change | 0.5 | -0.09 | inactive |
| PICK1 (GeneID 9463) | no change | no change | 2.58 | 0.18 | inactive |
| CAPN13 (GeneID 92291) | no change | no change | -0.2 | -0.7 | inactive |
| GSTT2B (GeneID 653689) | no change | no change | 0.64 | 0.74 | inactive |
| ANO1 (GeneID 55107) | no change | CA2 (caspase activation) | -2.72 | 5.61 | active |
| PADI4 (GeneID 23569) | no change | no change | -0.4 | -0.5 | inactive |
| UFD1 (GeneID 7353) | no change | no change | -1.16 | 0.68 | inactive |
| FCRL5 (GeneID 83416) | no change | no change | 0.54 | 0.31 | inactive |
| UBE2S (GeneID 27338) | no change | no change | -0.72 | 1.85 | inactive |
| RASL10B (GeneID 91608) | no change | no change | -3.4 | 2.28 | inactive |
| ZNF652 (GeneID 22834) | no change | no change | 1.5 | -0.53 | inactive |
| RBMY1F (GeneID 159163) | no change | no change | 0.17 | -0.5 | inactive |
| ADAMTS20 (GeneID 80070) | no change | no change | 0.1 | -0.01 | inactive |
| MREG (GeneID 55686) | no change | no change | 0.28 | -0.31 | inactive |
| MRPS34 (GeneID 65993) | no change | no change | 1.54 | 0 | inactive |
| NDUFS1 (GeneID 4719) | no change | no change | -0.55 | -0.41 | inactive |
| ZNF611 (GeneID 81856) | no change | no change | -0.16 | 0.86 | inactive |
| SLC19A3 (GeneID 80704) | no change | no change | 1.06 | -0.59 | inactive |
